The list shows a part of the results.
The targets below were run with COc1ccc(Cn2ccc3cc(C)c(C(=O)NO)cc32)cc1 (assay: dose-dependent thermal stabilisation call (2D-TPP, DLPTP, 10% FDR) (binary (1 = stabilised)); higher = stabilised by the compound). Settings: system: HL-60 intact cells; concentration range 0.04-10 µM.
Method: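 2D thermal proteome profiling in intact HL-60 cells treated with BRD-3811 (0, 0.04, 0.29, 2, 10 uM) for 90 min at 37 C, then heated 3 min at one of 12 temperatures (42-63.9 C). Soluble protein was quantified by TMT10 MS. The value is the DLPTP call of the paper: dose-dependent thermal stabilisation over all temperatures at 10% FDR (F-test of a dose-response against a flat model); one experiment, one call per tested protein.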

Chains of the proteins cited; added tags and fusions are not shown. Lines headed by an entry give the natural chain unless they say otherwise; changes in a name come on top.
UniProt Q92688: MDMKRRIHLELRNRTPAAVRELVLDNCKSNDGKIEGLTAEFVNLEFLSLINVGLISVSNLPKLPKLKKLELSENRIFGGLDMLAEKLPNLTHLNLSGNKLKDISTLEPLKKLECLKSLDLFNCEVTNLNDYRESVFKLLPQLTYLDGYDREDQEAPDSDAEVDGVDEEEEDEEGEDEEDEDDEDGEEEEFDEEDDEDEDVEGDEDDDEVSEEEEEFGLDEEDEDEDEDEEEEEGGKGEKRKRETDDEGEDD
UniProt O43747: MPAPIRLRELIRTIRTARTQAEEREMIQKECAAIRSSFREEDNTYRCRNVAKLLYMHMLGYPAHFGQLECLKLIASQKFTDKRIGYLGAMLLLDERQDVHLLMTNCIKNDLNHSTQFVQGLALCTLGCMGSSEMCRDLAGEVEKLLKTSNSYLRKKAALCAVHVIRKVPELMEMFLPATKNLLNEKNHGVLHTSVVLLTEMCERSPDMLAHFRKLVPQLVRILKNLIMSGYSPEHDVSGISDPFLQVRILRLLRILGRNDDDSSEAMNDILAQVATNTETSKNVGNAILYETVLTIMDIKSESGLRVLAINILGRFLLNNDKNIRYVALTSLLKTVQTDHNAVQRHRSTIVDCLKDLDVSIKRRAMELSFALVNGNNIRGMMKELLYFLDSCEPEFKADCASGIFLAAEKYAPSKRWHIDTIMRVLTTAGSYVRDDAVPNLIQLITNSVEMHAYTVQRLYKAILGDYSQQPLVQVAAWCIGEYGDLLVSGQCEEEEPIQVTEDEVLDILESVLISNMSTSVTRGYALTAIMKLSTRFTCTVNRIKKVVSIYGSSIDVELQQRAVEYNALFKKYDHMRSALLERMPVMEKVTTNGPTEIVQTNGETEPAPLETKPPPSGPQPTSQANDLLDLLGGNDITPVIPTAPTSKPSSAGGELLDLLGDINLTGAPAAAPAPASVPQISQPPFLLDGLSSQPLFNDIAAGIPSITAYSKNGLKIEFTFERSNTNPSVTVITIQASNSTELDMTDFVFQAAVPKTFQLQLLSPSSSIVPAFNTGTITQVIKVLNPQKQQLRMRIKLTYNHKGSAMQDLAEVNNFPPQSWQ
UniProt Q13017, whole entry: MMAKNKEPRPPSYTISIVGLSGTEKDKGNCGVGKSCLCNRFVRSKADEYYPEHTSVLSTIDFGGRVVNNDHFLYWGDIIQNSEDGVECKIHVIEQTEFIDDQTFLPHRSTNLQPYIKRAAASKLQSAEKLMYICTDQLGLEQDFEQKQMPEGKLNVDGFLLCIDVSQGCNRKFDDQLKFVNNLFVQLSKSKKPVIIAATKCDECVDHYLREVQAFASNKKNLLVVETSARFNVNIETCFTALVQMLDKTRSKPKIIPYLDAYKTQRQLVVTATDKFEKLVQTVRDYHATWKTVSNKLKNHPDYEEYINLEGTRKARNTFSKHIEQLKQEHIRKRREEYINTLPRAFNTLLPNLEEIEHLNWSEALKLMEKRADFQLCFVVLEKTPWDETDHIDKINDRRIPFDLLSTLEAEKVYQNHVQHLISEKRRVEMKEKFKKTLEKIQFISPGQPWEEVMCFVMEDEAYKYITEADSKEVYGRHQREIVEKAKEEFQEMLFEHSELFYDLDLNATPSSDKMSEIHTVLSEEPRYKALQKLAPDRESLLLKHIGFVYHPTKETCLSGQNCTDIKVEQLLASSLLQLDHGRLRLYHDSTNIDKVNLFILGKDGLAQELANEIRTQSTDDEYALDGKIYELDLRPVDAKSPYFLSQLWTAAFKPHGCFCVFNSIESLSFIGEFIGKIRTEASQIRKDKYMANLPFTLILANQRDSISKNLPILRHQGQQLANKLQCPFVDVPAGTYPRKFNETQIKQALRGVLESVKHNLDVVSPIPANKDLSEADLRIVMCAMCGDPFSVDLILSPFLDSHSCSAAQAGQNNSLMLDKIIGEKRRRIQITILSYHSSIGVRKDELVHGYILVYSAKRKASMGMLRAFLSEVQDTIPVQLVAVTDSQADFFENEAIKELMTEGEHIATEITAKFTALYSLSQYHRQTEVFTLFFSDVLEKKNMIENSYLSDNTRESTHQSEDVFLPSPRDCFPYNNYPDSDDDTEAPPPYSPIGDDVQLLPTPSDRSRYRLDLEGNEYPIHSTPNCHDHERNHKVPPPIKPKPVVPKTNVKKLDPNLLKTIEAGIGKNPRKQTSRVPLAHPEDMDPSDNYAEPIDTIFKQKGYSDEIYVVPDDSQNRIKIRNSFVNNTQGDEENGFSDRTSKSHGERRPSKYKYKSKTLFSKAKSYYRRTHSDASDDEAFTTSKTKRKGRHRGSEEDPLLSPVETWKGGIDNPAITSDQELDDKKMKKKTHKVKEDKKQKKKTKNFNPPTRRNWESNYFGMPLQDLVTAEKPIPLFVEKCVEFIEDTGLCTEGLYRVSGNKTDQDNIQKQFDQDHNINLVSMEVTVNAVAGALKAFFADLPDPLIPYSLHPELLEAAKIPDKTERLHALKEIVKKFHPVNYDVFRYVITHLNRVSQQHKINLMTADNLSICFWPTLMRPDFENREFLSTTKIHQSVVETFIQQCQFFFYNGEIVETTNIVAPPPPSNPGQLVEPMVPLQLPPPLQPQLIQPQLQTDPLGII
UniProt O75843: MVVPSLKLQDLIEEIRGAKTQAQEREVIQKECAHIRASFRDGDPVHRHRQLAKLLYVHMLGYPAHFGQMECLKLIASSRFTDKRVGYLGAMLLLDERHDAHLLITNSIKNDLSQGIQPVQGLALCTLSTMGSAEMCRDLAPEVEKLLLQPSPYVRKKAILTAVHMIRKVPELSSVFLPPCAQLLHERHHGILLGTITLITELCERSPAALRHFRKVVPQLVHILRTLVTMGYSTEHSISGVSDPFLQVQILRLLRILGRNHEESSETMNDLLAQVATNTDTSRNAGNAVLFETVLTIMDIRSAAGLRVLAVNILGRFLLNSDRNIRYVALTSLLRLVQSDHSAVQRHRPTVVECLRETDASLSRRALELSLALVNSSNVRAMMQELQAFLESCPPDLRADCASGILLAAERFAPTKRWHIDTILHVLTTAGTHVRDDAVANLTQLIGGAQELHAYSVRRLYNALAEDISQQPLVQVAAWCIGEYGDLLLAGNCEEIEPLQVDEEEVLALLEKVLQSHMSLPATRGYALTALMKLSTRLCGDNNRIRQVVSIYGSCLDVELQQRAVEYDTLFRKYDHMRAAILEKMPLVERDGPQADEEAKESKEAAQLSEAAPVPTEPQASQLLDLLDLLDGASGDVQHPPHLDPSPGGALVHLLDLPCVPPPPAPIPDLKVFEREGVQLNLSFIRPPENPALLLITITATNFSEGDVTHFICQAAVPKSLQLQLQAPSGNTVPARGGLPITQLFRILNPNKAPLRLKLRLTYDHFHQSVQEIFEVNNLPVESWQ
UniProt P10398: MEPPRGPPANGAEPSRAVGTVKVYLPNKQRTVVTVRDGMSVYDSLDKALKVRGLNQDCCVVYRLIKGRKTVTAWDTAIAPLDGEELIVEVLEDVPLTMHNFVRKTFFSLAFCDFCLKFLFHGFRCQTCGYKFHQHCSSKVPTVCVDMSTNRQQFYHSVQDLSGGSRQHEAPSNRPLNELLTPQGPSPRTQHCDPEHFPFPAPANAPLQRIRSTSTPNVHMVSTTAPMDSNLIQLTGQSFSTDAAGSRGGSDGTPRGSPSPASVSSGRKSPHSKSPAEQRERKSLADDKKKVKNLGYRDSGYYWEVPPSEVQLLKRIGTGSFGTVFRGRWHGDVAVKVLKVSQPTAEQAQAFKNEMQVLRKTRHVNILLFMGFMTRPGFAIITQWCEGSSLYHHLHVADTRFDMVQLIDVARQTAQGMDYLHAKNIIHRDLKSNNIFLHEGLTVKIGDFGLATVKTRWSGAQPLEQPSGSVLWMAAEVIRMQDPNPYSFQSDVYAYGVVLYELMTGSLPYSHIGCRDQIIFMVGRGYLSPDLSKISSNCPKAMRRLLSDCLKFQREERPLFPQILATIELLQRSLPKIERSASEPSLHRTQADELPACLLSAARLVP
UniProt P36405: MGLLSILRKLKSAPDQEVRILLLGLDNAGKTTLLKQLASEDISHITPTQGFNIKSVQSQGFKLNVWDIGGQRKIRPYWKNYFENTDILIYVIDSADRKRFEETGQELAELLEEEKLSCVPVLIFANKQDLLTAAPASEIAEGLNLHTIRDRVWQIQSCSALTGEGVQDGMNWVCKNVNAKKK
UniProt Q96F25: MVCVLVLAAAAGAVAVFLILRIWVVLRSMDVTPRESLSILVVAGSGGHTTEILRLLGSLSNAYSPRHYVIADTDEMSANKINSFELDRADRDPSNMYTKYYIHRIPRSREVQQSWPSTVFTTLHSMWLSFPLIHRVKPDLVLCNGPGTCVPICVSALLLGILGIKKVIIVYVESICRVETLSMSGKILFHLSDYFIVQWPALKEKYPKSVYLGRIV
UniProt O00170: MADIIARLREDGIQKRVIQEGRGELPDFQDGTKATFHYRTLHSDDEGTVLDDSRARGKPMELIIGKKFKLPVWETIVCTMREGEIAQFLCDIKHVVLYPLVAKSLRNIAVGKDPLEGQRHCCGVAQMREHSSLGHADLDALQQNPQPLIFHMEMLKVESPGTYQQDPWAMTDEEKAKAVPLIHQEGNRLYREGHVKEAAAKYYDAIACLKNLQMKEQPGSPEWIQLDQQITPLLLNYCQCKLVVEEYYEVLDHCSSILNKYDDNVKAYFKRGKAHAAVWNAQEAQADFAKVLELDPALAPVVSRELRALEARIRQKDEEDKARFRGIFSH
UniProt Q68CP9, whole entry: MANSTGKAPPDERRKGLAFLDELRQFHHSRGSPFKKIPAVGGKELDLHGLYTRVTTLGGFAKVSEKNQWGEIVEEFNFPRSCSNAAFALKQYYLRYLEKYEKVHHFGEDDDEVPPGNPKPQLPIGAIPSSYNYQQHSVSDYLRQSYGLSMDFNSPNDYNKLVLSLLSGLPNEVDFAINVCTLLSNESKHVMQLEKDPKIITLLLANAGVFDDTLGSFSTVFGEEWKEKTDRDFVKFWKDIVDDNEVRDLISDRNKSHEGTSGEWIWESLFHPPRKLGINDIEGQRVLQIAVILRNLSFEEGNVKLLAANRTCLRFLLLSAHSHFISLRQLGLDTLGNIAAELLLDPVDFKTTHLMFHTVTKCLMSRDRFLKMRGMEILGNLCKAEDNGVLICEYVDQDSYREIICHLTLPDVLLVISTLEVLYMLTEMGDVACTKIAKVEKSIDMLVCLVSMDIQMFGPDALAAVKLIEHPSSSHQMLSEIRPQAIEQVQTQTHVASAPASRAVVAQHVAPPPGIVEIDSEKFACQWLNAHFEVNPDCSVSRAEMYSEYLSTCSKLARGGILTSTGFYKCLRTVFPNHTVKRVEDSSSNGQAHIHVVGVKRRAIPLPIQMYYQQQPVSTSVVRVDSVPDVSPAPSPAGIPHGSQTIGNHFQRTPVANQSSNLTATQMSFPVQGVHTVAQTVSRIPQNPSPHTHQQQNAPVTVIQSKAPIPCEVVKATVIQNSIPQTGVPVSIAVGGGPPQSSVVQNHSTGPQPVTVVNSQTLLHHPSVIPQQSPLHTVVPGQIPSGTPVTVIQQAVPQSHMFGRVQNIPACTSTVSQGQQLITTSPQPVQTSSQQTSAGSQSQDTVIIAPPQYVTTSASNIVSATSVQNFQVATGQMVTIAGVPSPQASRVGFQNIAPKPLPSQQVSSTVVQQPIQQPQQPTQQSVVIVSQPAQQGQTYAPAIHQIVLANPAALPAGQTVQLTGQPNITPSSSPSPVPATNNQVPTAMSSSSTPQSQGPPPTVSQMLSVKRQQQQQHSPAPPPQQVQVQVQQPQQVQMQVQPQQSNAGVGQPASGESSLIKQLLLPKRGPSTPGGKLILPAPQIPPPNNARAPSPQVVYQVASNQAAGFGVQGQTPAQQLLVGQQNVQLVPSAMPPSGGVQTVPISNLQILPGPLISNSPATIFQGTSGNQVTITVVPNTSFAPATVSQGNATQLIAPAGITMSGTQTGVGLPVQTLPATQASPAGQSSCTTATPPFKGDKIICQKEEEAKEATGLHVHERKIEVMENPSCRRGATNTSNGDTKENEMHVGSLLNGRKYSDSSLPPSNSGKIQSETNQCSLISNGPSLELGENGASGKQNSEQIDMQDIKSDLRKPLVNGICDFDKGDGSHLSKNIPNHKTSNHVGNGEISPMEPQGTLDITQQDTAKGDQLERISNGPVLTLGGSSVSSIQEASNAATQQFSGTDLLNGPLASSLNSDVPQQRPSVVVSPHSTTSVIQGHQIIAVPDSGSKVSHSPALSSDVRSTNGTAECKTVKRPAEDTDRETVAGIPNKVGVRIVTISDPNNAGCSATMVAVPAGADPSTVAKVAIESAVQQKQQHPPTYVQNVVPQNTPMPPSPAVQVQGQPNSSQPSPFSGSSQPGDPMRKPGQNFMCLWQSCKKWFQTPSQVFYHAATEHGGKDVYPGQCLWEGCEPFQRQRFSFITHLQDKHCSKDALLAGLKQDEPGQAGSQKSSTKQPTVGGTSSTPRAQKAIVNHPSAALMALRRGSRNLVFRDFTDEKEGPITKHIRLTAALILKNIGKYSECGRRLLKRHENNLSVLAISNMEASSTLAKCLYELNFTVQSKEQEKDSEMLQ

Target | dose-dependent thermal stabilisation call
ANKRD52 (UniProt Q8NB46) | inactive: 0
ARHGAP26 (UniProt Q9UNA1) | inactive: 0
ARFRP1 (UniProt Q13795) | inactive: 0
ANP32B (UniProt Q92688) | inactive: 0
AP1G1 (UniProt O43747) | inactive: 0
ARHGAP5 (UniProt Q13017) | inactive: 0
ATM (UniProt Q13315) | inactive: 0
ADSS (UniProt P30520) | active: 1
ARID1A (UniProt O14497) | inactive: 0
AFG3L2 (UniProt Q9Y4W6) | inactive: 0
ATAD2 (UniProt Q6PL18) | inactive: 0
AKAP8 (UniProt O43823) | inactive: 0
AP1G2 (UniProt O75843) | inactive: 0
ARFGAP3 (UniProt Q9NP61) | inactive: 0
ATG4C (UniProt Q96DT6) | inactive: 0
ARAF (UniProt P10398) | inactive: 0
ALKBH8 (UniProt Q96BT7) | inactive: 0
ARL3 (UniProt P36405) | inactive: 0
ALG14 (UniProt Q96F25) | inactive: 0
ARPC3 (UniProt O15145) | inactive: 0

Another view of part of the listing above.

| Target | dose-dependent thermal stabilisation call |
| --- | --- |
| ADSS (UniProt P30520) | active: 1 |
| ARID1A (UniProt O14497) | inactive: 0 |
| AFG3L2 (UniProt Q9Y4W6) | inactive: 0 |
| ATAD2 (UniProt Q6PL18) | inactive: 0 |
| AKAP8 (UniProt O43823) | inactive: 0 |
| AP1G2 (UniProt O75843) | inactive: 0 |
| ARFGAP3 (UniProt Q9NP61) | inactive: 0 |
| ATG4C (UniProt Q96DT6) | inactive: 0 |
| ARAF (UniProt P10398) | inactive: 0 |
| ALKBH8 (UniProt Q96BT7) | inactive: 0 |
| ARL3 (UniProt P36405) | inactive: 0 |

Remaining list, next part:

Target | dose-dependent thermal stabilisation call
ANKRD11 (UniProt Q6UB99) | inactive: 0
AGPAT3 (UniProt Q9NRZ7) | inactive: 0
AHNAK (UniProt Q09666) | inactive: 0
ARPC1A (UniProt Q92747) | inactive: 0
AIP (UniProt O00170) | inactive: 0
ARHGAP18 (UniProt Q8N392) | inactive: 0
AP4E1 (UniProt Q9UPM8) | inactive: 0
ASXL2 (UniProt Q76L83) | inactive: 0
ARIH1 (UniProt Q9Y4X5) | inactive: 0
AKR1A1 (UniProt P14550) | inactive: 0
AP2S1 (UniProt P53680) | inactive: 0
AKT1S1 (UniProt Q96B36) | inactive: 0
ARHGAP17 (UniProt Q68EM7) | inactive: 0
AQR (UniProt O60306) | inactive: 0
ARID2 (UniProt Q68CP9) | inactive: 0
ARHGAP4 (UniProt P98171) | inactive: 0
AKT1 (UniProt P31749) | inactive: 0
ARAP1 (UniProt Q96P48) | inactive: 0
ARFIP2 (UniProt P53365) | inactive: 0
AIDA (UniProt Q96BJ3) | inactive: 0

From the supplement of paper PMC7666118
